For some of these results: Construct, isoform or probe ends are uncertain for at least one entry. For some of these results: At least one verdict was read from the data and is not stated in words by the source.

Amino acid sequences for entries named in this document (tags omitted).
UniProt Q13148, whole entry: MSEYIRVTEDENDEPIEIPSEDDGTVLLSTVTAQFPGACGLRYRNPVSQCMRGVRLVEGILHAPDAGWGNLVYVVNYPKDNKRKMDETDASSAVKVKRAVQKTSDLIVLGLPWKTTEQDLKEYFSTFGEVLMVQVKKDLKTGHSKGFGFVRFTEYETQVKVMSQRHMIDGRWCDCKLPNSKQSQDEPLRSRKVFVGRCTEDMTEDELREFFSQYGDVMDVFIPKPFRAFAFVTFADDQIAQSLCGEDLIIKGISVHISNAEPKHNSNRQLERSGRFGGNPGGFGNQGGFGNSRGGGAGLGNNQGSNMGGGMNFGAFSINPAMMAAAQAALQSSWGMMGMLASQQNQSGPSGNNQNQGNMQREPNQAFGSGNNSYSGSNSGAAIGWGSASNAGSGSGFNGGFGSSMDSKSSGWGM

Experimental findings from publication PMC6412121 are described below.

Series [1] deals with TF-TDP-43-FL (UniProt Q13148). The experiment in a line: EMSA. The settings on record: biotin-UTP incorporated in transcription; EMSA: 40 mM Tris-HCl pH 7.4, 30 mM KCl, 1 mM MgCl2, 0.01% IGEPAL CA-630, 1 mM DTT, 10 ug yeast tRNA, 10 ug BSA, 10 ng RNA, 200 ng protein in 10 ul, 25 C, 20 min; recombinant protein; residues 1-414; protein details: TF; label: biotin; probe letters rebuilt from the primers and the genome. For orientation: Mobility shift assays separate free from complexed probe on a gel.

For series [2], the target named is TF-TDP-43-FL (UniProt Q13148). The experiment in a line: competition with a labelled probe. The settings on record: unlabeled competitor in EMSA, interrupts binding of scaRNA2, 7, 9 and 28; EMSA: 40 mM Tris-HCl pH 7.4, 30 mM KCl, 1 mM MgCl2, 0.01% IGEPAL CA-630, 1 mM DTT, 10 ug yeast tRNA, 10 ug BSA, 10 ng RNA, 200 ng protein in 10 ul, 25 C, 20 min; recombinant protein; residues 1-414; protein details: TF.

“GGGAGACUUUCUGAGAUCUGCUUUUAGUGAAGUGGAUCAAUGAUGAAACUAGCCAAAUCUGAGCAUCAGAAGUCUUUCCAGUCUACCUGAUGCAUGAUCUCUACAGUUCUGAGAAGCAAAACUAUAAAACAAUGUAAAACAAUAAGGGCAUAUGUCUGGUGUGUGUGUGUGUGUGUGUGUGUGUGUGUGUGUGUACGCACAUGUGUUUAUAAAGAUAACAGCUGUAGGAAUGAAUGAGAUUGAGGGUGGGGGGGUGCGUAUGUAUGUCUAUGAAAGCCUAAUCAUUUCUGGGCAAUGAUGAAAAGGUUUUACUACUGAUCUUUGUAACUAUGAUGGUUUCUACACUUGACCUGAGCUCA [scaRNA9]”: the binding result with TF-TDP-43-FL [1] was “binds”.

For the sequence UGUGUGUGUGUG [(UG)6], the binding result with TF-TDP-43-FL [2] is recorded as “binds”. In the case of “GGGAGAGUUUUAGGGAGGGAGAGCGGCCUGGGUCCUGGGUGUUGUGUGCGGAGCUGUGGCGUCGCGUGUGAGGCGCGUGCAGGGUGAGUGUGAGUGGACGCGUGAGUGUGUGAGUGUGCGCGCUUGGAGCGUGUUAGGCGAGUGCGUGCGCCCACCCCUGCGCCCCUCCUCCCGCUUACACUUUGAUCUUAUUUGAUCGGAUCGUGACCCCAGCCCCGCCGGGCCGACCCGAAAUGAAAAGCUCUCCUCCUGCGAAGCCCCCUCGGGGCGCUGUGCAGCGAGGCCCCUUAGGCGGCGGCCACGCUGUGGUCCCCGAGGUCCCGGAGCUGGCCCUGCGGGGCCCGGCGCUCAGAAGUGAUGAAUUGAUCAGAUAGACGAGGCCGGGCUUGUCCCCGGCCACUGAUUAUCGAGGCGAUUCUGAUCUGG [scaRNA2]”, in the series with TF-TDP-43-FL [1], the binding result was “binds”. Take “GGGAGAUGGAAAUGAUGAAAUAGAGAUAAUUGGGUGUUGAAUGUUGUAUGACUGGAAAUUUUUAAUAUGUAUAUUAUGUAAUUCUUAUAAGUUUAGUGUUUUAUAGGUACUUAAUAGAGAGUGUGUAUGCAUGUGUGUGUGCUUGUGGUGGCUAUGGAAAGGGGGCACUGACUGGUGAUGCUGAUAUUGGAGUGCAUCUGAGGCUGUUGUAGAAAUAACAUGGGUUGUUGAUUACAACAUUGCCAAUGAUUAUAACCCAAGAACAGCUCACCUAACUAGCCUGGCACCCUAAAAUCUCUAACAGGUUCAUUAAAAUGGUCCUGUGAUCUGAUCCAA [scaRNA7 (U90)]”: the binding result in the series with TF-TDP-43-FL [1] is on record as “binds”.
